From PubChem BioAssay AID588590 (National Center for Advancing Translational Sciences (NCATS), 2011)
Hit rate of the full screen: of about 390,000 compounds, about 4,000 (1%) were called active. This list was built around the results that the source calls inconclusive (neither active nor inactive); the mix of calls is not that of the screen. Calls follow the shape of the dose curve; as a rule, active = well fitted inhibition curve with a large enough effect; inconclusive = small, poorly fitted or top-dose-only effect, or another doubt; inactive = no such curve, though single readings can be large or run the other way. A potency beside an inconclusive call is a rough fit, not a confirmed value.

Protein sequences, listed by entry. Tags and fused reporters are not part of them. Lines headed by an entry give the natural chain unless they say otherwise; changes in a name come on top.
UniProt Q9UNA4: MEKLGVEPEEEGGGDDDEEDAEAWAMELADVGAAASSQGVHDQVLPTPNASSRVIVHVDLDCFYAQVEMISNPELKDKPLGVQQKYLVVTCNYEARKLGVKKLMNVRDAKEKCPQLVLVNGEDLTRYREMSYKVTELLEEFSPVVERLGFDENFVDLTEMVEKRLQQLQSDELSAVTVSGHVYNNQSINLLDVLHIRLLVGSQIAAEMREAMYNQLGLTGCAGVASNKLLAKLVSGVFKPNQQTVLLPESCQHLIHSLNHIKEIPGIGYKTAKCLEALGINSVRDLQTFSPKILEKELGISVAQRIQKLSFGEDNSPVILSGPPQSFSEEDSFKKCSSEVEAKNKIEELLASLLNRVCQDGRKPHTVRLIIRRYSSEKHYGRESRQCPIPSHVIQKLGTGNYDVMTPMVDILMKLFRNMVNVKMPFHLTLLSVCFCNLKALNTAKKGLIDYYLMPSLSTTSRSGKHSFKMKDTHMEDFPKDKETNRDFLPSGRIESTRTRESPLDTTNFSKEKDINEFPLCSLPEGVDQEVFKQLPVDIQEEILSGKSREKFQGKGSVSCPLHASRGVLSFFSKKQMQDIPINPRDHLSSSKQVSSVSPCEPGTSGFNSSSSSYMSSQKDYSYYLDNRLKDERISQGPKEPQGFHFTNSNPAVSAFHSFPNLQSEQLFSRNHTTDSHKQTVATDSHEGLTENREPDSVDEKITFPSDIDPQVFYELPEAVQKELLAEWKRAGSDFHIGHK

biological target: DNA polymerase iota (Homo sapiens) (UniProt Q9UNA4); assay: qHTS for Inhibitors of Polymerase Iota; conditions: Pol iota fluorescent replication assay, 10 min; series mostly up to 115 µM; activity, negative = inhibition: at the top concentration
In short: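 Fluorescent replication assay read twice, at 0 min and 10 min after adding 50 nM (final) substrate. Enzyme (10 nM) and compounds were first incubated 15 min at room temperature; enzyme-free buffer wells were negative controls.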
Potency is read from the fitted curve at half-maximal effect.

activity, negative = inhibition, inactive:
Oc1ccccc1C=Nc1cccc2ccccc12 62.1%
O=C(NCCNCCO)C1(C(F)(F)F)CC(CCc2ccccc2)CCCO1 (stereo not given) 20%
Oc1cc(-c2ccc(N3CCCCC3)nc2)cc2cccnc12 56.9%
COc1ccc(S(=O)(=O)n2ccnc2C)c(C)c1C 11.1%
Cc1cccc(OCC(=O)Nc2sc3c(c2C#N)CCC3)c1 11.8%
O=C(COC(=O)c1ccccc1C(=O)c1ccccc1)Nc1cccc([N+](=O)[O-])c1 -20.1%
COCCc1nn2c(=O)cc(COC(=O)c3ccccc3C)nc2s1 -13.5%

Sorted by number of heavy atoms (rising): 3 of the compounds above.
activity, negative = inhibition, inactive:
Oc1cc(-c2ccc(N3CCCCC3)nc2)cc2cccnc12 56.9%
COCCc1nn2c(=O)cc(COC(=O)c3ccccc3C)nc2s1 -13.5%
O=C(COC(=O)c1ccccc1C(=O)c1ccccc1)Nc1cccc([N+](=O)[O-])c1 -20.1%

Following part.

Potency, active:
O=C(Oc1ccc([N+](=O)[O-])cc1)C1CC(=O)N(c2ccc3c(c2)OCCO3)C1 (stereo not given) 79.4 µM

Potency, inconclusive:
Cc1cccc(NC(=O)C(C)Sc2nnc(-c3cccnc3)o2)c1 (stereo not given) 70.8 µM [inhibitor, partial curve, poor fit]
COc1ccc(-c2cc(C)no2)cc1S(=O)(=O)NCc1ccco1 79.4 µM [inhibitor, partial curve]
Cc1ccc(OCc2nc(-c3ccccn3)no2)c(Br)c1 112 µM [inhibitor, partial curve, poor fit]
O=C(O)CCC(=O)N1CCc2cc(S(=O)(=O)N3CCN(c4ccc(F)cc4)CC3)ccc21 79.4 µM [inhibitor, single point]
COc1nnc(-c2ccc(N3CCCCC3)c(NC(=O)c3ccccc3Cl)c2)c2ccccc12 89.1 µM [inhibitor, single point]
CCNc1nc(NCC)n2c(SCC(=O)Nc3ccc(OC(F)F)cc3)nnc2n1 50.1 µM [inhibitor, partial curve]
Cc1csc(NCC(=O)c2c[nH]c3ccccc23)n1 89.1 µM [inhibitor, single point]
O=C(CSc1n[nH]c(-c2ccncc2)n1)c1cccc([N+](=O)[O-])c1 11.2 µM [inhibitor, partial curve, poor fit]
COc1cc(C)c(S(=O)(=O)N2CCOCC2)cc1C 70.8 µM [inhibitor, single point]
O=C1OCCN1S(=O)(=O)Nc1ccccc1 39.8 µM [inhibitor, single point]
Cc1nnc(Oc2ccccc2F)c2ccccc12 15.8 µM [inhibitor, full curve]
O=C(Nc1cccc(NC(=O)c2ccccc2[N+](=O)[O-])n1)c1ccccc1[N+](=O)[O-] 2.51 µM [inhibitor, full curve, poor fit]
COCC(=O)Nc1ccc(C(C)C)cc1 89.1 µM [inhibitor, partial curve, poor fit]
O=C(COc1ccc(F)cc1)Nc1ccccc1C(=O)OCc1cc(=O)n2ccsc2n1 89.1 µM [inhibitor, single point]
COc1ccc(C(=O)C(CN2CCOCC2)c2ccccc2)cc1F (stereo not given) 20 µM [inhibitor, full curve, poor fit]
COc1cc(C(=O)Nc2nc(-c3ccc(F)cc3)cs2)ccc1OCC(=O)N1CCOCC1 89.1 µM [inhibitor, single point]
O=C(Nc1cc(-c2ccc(Cl)cc2)no1)c1ccc(F)cc1 79.4 µM [inhibitor, partial curve, poor fit]
CCCSCCCNC(=O)CN1C(=O)COc2ccc(S(=O)(=O)N3CCCC3)cc21 89.1 µM [inhibitor, single point]
COc1ccccc1/C=C/C=N/NC(=O)c1cc(-c2ccc(C)o2)[nH]n1 20 µM [inhibitor, single point]
COc1ccc(OC)c(-n2c(=S)[nH]c3c(sc(=S)n3-c3ccccc3C)c2=O)c1 10 µM [inhibitor, partial curve]
N/C(=N\N=C/c1ccc(Br)cc1)N/N=C\c1ccc(Br)cc1 14.1 µM [inhibitor, partial curve, poor fit]
NC(=O)c1ccccc1NC(=O)CN1c2ccccc2S(=O)(=O)c2ccccc21 89.1 µM [inhibitor, single point]
O=S(=O)(c1ccc2nc(N3CCN(c4ccc(F)cc4)CC3)ccc2c1)N1CCCCC1 15.8 µM [inhibitor, partial curve, poor fit]
COc1ccc(OCC(=O)Nc2c3c(nn2-c2ccc(OC)cc2)CS(=O)(=O)C3)cc1 100 µM [inhibitor, partial curve, poor fit]
COc1ccc(S(=O)(=O)Nc2ccc(O)c(Sc3ncn[nH]3)c2)cc1 63.1 µM [inhibitor, partial curve, poor fit]
NCCNC(=O)Cc1ccc(NC(=O)Cc2ccc(Nc3ncnc4c3ncn4[C@@H]3O[C@H](CO)[C@@H](O)[C@H]3O)cc2)cc1 89.1 µM [inhibitor, partial curve, poor fit]
CCOc1ccc(OCC)c(NC(=O)c2cnc(SC)nc2-c2ccccc2)c1 89.1 µM [inhibitor, single point]
Cc1[nH]nc(N)c1-c1ccccc1 20 µM [inhibitor, partial curve, poor fit]
COc1ccc2c(c1)C=CC1(O2)N(CCO)c2ccccc2C1(C)C (stereo not given) 39.8 µM [inhibitor, single point]
Cn1nnnc1Sc1ncnc2scc(-c3cccc(S(C)(=O)=O)c3)c12 44.7 µM [inhibitor, partial curve, poor fit]
O=C(Nc1cccc(Cl)c1)c1ccc(NCC2CCCO2)c([N+](=O)[O-])c1 (stereo not given) 28.2 µM [inhibitor, full curve, poor fit]
Cc1ccc(C(=O)C(c2ccccc2)N2Cc3ccccc3C2=N)cc1 (stereo not given) 100 µM [inhibitor, partial curve, poor fit]
